The other results are listed elsewhere or left out. Small differences around the control level are noise.

By UniProt entry, the sequences of proteins in these tests, tags left out. Where a name states a change or a piece, a line headed by the entry shows the natural chain unless it says otherwise.
UniProt Q9BV38: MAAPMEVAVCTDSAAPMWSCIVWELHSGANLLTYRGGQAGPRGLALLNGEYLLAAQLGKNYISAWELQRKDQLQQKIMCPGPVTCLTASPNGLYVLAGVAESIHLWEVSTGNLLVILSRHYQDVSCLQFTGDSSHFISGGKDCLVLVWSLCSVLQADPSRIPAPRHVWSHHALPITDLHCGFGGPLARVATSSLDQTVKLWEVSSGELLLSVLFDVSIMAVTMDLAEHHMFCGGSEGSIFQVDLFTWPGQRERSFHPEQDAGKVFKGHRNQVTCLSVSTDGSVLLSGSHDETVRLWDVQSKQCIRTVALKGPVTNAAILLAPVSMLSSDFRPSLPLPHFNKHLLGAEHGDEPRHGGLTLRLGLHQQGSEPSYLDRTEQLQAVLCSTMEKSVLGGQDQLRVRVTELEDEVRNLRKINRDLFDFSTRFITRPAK
UniProt Q9BWG4: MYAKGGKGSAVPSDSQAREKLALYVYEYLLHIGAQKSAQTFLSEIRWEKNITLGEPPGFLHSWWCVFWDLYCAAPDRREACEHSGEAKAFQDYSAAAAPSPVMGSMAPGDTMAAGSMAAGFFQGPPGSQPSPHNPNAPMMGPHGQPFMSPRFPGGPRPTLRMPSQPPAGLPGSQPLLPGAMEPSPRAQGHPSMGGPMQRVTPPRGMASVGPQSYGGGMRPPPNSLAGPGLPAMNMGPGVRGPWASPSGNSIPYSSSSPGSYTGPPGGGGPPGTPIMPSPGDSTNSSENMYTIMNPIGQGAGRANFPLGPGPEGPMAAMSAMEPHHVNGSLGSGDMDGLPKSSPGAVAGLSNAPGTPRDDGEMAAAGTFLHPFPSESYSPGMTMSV
UniProt Q9BZD4: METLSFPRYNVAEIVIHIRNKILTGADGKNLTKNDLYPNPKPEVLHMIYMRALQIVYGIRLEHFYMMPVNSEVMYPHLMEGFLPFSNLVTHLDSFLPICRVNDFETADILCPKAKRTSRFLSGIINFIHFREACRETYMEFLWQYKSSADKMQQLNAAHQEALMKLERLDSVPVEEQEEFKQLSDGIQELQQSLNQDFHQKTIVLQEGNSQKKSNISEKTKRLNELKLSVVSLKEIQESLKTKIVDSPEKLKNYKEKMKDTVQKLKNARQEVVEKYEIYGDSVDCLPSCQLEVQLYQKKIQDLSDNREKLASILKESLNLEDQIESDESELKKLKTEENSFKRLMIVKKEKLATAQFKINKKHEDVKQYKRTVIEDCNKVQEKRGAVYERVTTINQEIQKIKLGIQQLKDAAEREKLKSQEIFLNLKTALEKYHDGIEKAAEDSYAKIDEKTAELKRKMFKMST
UniProt Q9BXL5: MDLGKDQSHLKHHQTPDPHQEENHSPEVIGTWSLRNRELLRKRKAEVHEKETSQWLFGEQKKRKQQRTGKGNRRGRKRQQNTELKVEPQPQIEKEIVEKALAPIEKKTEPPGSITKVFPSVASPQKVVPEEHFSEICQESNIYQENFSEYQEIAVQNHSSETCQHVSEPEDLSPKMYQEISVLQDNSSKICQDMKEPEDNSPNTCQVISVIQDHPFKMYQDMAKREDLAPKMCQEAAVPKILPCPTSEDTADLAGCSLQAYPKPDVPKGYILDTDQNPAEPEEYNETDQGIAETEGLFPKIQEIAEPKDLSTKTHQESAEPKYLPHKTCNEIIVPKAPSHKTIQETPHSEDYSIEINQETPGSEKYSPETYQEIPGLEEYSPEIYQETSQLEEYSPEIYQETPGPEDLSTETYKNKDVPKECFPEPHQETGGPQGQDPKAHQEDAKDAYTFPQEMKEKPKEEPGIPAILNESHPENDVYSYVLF
UniProt Q9BWP8: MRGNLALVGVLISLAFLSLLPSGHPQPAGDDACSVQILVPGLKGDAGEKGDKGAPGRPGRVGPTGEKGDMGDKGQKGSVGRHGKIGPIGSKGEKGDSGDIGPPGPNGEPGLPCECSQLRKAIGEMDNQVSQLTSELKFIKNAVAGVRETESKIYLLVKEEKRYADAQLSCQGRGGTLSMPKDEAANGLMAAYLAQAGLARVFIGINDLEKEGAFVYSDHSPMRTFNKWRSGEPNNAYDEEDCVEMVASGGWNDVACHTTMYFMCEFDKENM
UniProt Q9GZY0: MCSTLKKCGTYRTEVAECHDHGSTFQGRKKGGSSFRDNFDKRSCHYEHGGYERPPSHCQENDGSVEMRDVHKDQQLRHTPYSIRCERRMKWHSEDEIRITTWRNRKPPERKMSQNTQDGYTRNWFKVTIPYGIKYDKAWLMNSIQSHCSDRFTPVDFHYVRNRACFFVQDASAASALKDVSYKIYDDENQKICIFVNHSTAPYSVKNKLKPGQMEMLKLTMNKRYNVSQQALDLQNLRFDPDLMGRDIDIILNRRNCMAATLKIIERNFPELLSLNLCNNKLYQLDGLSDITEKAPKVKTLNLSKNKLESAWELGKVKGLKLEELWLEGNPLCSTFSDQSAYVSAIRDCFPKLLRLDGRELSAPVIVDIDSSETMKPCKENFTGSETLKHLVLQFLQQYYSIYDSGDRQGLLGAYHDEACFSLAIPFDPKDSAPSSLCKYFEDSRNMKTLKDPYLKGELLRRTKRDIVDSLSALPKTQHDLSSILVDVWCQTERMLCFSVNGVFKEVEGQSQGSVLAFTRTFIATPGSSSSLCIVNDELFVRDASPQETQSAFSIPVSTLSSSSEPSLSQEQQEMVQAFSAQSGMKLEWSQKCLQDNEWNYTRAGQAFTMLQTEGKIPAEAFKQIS
UniProt Q9BYE7: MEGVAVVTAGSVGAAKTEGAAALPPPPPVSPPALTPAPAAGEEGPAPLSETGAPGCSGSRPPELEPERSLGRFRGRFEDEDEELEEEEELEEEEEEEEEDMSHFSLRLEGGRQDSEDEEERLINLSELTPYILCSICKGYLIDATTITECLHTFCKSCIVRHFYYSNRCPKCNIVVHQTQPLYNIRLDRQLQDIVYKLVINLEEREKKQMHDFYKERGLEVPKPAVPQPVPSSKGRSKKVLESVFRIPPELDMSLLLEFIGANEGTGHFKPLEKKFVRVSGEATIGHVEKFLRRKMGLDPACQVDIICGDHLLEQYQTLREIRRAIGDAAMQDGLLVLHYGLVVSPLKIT
UniProt Q9BW71: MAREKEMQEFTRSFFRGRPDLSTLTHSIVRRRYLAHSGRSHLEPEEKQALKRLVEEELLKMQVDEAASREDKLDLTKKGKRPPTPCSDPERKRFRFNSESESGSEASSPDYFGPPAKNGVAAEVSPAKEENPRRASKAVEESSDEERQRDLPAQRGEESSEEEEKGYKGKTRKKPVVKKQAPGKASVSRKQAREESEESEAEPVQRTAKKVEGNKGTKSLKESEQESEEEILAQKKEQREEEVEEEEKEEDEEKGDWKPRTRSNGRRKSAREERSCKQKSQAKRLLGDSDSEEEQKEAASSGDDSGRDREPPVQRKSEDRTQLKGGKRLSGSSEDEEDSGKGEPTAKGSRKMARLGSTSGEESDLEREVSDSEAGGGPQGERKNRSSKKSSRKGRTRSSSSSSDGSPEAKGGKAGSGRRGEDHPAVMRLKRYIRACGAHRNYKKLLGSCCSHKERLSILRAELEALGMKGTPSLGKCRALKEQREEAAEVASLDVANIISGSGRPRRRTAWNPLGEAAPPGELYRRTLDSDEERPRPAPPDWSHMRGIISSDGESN
UniProt Q9BYJ9: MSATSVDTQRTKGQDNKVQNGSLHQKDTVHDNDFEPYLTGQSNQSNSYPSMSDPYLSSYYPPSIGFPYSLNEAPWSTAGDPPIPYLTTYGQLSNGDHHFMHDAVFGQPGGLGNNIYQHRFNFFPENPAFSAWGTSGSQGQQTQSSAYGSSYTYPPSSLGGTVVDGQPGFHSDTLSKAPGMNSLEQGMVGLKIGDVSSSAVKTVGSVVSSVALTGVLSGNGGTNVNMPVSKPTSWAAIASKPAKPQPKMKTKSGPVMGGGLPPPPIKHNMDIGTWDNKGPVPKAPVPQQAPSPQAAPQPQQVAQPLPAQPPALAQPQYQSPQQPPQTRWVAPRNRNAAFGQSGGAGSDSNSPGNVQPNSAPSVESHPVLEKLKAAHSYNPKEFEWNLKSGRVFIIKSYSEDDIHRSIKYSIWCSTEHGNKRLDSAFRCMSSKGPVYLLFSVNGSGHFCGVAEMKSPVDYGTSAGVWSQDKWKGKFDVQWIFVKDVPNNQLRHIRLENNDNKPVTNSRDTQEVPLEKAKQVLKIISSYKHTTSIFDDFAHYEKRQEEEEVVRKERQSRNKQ

Compound in the assay: Cc1nc(Nc2ncc(C(=O)Nc3c(C)cccc3Cl)s2)cc(N2CCN(CCO)CC2)n1 [dasatinib]
Briefly: log2 fold change of tryptic peptide abundance, ligand vs vehicle (limited proteolysis) (log2 ratio); higher = more trypsin-susceptible (destabilized). Particulars: ligand concentration: 5 uM; sample: K562 cleared lysate.
Regarding “WDR18 (peptide sequence: HLLGAEHGDEPR, peptide start residue: 342) (UniProt Q9BV38)”, the log2 fold change was -0.251.
Consider “SSBP4 (peptide sequence: EACEHSGEAK, peptide start residue: 79) (UniProt Q9BWG4)”, for which the log2 fold change was determined as 0.389.
As for “NUF2 (peptide sequence: YNVAEIVIHIR, peptide start residue: 9) (UniProt Q9BZD4)”, the figure is 0.202; as for “HEMGN (peptide sequence: MYQDMAKR, peptide start residue: 218) (UniProt Q9BXL5)”, -0.13.
On to “COLEC11 (peptide sequence: YADAQLSCQGR, peptide start residue: 163) (UniProt Q9BWP8)”, for which the log2 fold change is -0.0619.
In the case of “NXF2 (peptide sequence: DVHKDQQLR, peptide start residue: 69) (UniProt Q9GZY0)”, the log2 fold change came out at 0.221.
For “PCGF6 (peptide sequence: LVINLEER, peptide start residue: 198) (UniProt Q9BYE7)”, the log2 fold change is -0.0319.
For the target “HIRIP3 (peptide sequence: TAWNPLGEAAPPGELYRR, peptide start residue: 509) (UniProt Q9BW71)”, the log2 fold change was -0.343.
For the target “YTHDF1 (peptide sequence: PTSWAAIASKPAKPQPK, peptide start residue: 231) (UniProt Q9BYJ9)”, the log2 fold change was -0.329.

The record behind these values is the supplement of paper PMC12819154, “High-throughput peptide-centric local stability assay extends protein–ligand identification to membrane proteins, tissues and bacteria” (Nature Structural & Molecular Biology, 2025).
